Results as given in patent publication US20100144636A1, “PEPTIDES DERIVED FROM RAS-P21 AND USES THEREFOR” (THE RESEARCH FOUNDATION OF STATE UNIVERSITY OF NEW YORK, priority 2008, published 2010).
At least one peptide structure holds a part that was inferred or is arguable (an end, a ring closure or a residue). Where no end group is shown, it is not given here.

Legend:
[1] = system: HT-1080 fibrosarcoma cells; assay: Growth (cell counts) of HT-1080 cells incubated with peptide; assay type: cell-based, human; conditions: peptide 100 μg/ml, medium changed every 48 h; three-week observation period (FIG. 1)
Description: MIAPaCa-2 cells were grown in Dulbecco's modified Eagle's medium (GIBCO) supplemented with heat inactivated 10% fetal calf serum, 20 mM glutamine, penicillin (100 units/ml), streptomycin (100/ug/ml) and plated on a six-well plate with density no more then 20,000 cells/well in 3 ml culture medium. HT1080 cells were cultured in RPMI 1640 medium supplemented with 10% heat-inactivated fetal calf serum, 100 units/ml of penicillin and 100 ug/ml streptomycin and plated on six-well plates with a density of no more then 6,000 cells/well in 3 ml culture medium. BMRPA1 normal rat pancreatic acinar cells were grown as described previously.
All cells (approximately 2×10^4) were incubated in their respective media (see above) for 24 h after which the media were replaced with the same media containing one of the peptides at a concentration of 100 μg/ml. Over the subsequent time course of each experiment, the medium was changed every 48 h, but always contained peptide at the same concentration. Cells were observed daily for 1-3 weeks for changes in morphology and growth characteristics. After selected time periods, cells were stained with trypan blue or assayed using the MTT assay as described previously to assess cell counts. These experiments were performed at least three times for each cell line.

[2] = system: MIA-PaCa-2 cells; assay: CytoTox96 assay for LDH released into the culture medium (necrosis); assay type: cell-based, human; conditions: FIG. 4B; control compared with target-peptide-treated cells
[3] = system: HT-1080 cells; assay: Growth of peptide-treated HT-1080 cells in soft agar (colony counts); assay type: cell-based, human; conditions: 1×10^4 cells plated after peptide treatment, 2 weeks at 37° C. (FIG. 2)
[4] = system: MIA-PaCa-2 pancreatic cancer cells; assay: Growth and viability (cell counts) of MIA-PaCa-2 cells incubated with peptide; assay type: cell-based, human
[5] = system: U-251 human astrocytoma cells; assay: Killing of U-251 astrocytoma cells (overexpressed wild-type ras-p21); assay type: cell-based; conditions: 1×10^6 cells, within 1 week, 125 ug/ml
[6] = system: JNK in MIA-PaCa-2 cells; assay: Immunoblots for total and phosphorylated JNK, MIA-PaCa-2; assay type: cell-based, human; conditions: MIA-PaCa-2 cells treated for 48 h
[7] = system: TUC-3 rat pancreatic cancer cells; assay: Phenotypic reversion of ras-transformed TUC-3 cells; assay type: cell-based; conditions: 2 weeks of treatment/incubation with peptide-MRP
[8] = system: TUC-3 rat pancreatic cancer cells; assay: Growth of peptide-treated TUC-3 cells in nude mice; assay type: in vivo; conditions: cells treated 2 weeks with peptide; compared with untreated TUC-3 cells
[9] = system: caspase (CPP32) in MIA-PaCa-2 cells; assay: Clontech caspase (CPP32) activity assay for apoptosis; assay type: cell-based, human; conditions: relative to control background; TNF-alpha 20 ng/ml for 45 min as positive control (FIG. 4A)
Description: To detect if peptide-induced cell death occurred by apoptosis or necrosis, the Clontech caspase (CPP32) activity assay for elevated caspase was performed as described previously. In addition, to detect if significant cell necrosis occurred, the CytoTox96 assay for LDH released into the cell culture medium was used as also described previously. As a positive control for LDH release, the CytoTox96 assay was performed on the media of MIA-PaCa-2 cells that were incubated with 100 ug/ml PNC-28 peptide for 24 h.

Sequence | tumor cell growth / cell count of HT-1080 cells [1] | LDH activity released into the culture medium of MIA-PaCa-2 cells [2] | colony formation of treated HT-1080 cells in soft agar [3] | tumor cell growth of MIA-PaCa-2 cells ([4]; peptide 100 μg/ml (FIG. 3)) | viable MIA-PaCa-2 cells after 2 weeks of treatment ([4]; peptide 100 μg/ml, 2 weeks) | killing of U-251 cells [5] | expression of total JNK ([6]; versus untreated cells (FIG. 5A)) | level of phosphorylated JNK ([6]; versus untreated cells (FIG. 5B)) | phenotype of TUC-3 cells after peptide treatment [7] | growth of treated TUC-3 cells in nude mice [8] | caspase expression in MIA-PaCa-2 cells [9]
MPFSTGKRIMLGEKKWKMRRNQFVKVQRG [PNC-29, reference compound] | no effect on tumor cell growth | twofold lower | – | – | – | – | – | – | – | – | –
TIEDSYRQVVIDKKWKMRRNQFVKVQRG [PNC-7-MRP] | dramatic decrease in cell count after 1 week | LDH is released | did not form any colonies | total inhibition of tumor cell growth | no viable cells remained | kill all of these cells | remained the same as in untreated cells | markedly diminished | adopt the wild-type phenotype | failed to grow in nude mice | not elevated above control background levels
